This assay concerns the target T1, amino-terminal domain of CHC2 (clathrin heavy chain 2), GAL4 BD fusion (Arabidopsis thaliana) (UniProt Q0WLB5).
T1 sequence: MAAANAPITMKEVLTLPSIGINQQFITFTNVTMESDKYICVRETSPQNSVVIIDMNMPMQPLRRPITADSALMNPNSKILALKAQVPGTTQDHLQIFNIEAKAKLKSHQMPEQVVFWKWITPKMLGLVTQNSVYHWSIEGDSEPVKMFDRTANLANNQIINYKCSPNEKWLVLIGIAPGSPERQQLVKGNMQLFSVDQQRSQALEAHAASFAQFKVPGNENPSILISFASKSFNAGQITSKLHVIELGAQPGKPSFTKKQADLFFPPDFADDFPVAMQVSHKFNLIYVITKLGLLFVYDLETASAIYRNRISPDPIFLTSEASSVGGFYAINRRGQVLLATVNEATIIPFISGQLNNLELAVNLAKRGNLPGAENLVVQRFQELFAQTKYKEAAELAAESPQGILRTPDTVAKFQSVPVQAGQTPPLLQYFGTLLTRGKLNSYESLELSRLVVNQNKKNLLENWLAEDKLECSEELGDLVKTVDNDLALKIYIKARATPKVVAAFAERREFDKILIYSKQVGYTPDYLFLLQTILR
The assay can be described thus: two-hybrid; GAL4 AD fusions of AP large subunits against GAL4 BD-CHC2 NTD in S. cerevisiae AH109; growth on medium lacking Leu, Trp, His and adenine, 4 days at 30 °C; five independent colonies.

These are yes or no findings as the source states them, for the method shown. Sequences can lack the tags named with a protein.

B1: AP4E (epsilon subunit of AP-4), GAL4 AD fusion (protein, UniProt Q8L7A9 1-938)
chain: MEQLKTIGRELAMGSQGGFGQSKEFLDLVKSIGEARSKAEEDRIVLSEVDILKRRLLEPDIPKRKMKEYIIRLVYIEMLGHDASFGYIYAVKMTHDDNLLLKRTGYLAVTLFLNEDHDLIILIVNTIQKDLRSDNYLVVCAALNAICRLINEETIPAVLPQVVELLNHQKEAVRKKAIMALHRFHRKSPSSVSHLVSNFRKRLCDNDPGVMGATLCPLFDLISEDVNSYKDLVSSFVSILKQVTERRLPKSYDYHQMPAPFIQIKLLKIMALLGSGDKNASDIMSMVLGDLFRKCDSSTNIGNAILYECIRCISCILPNPKLLEAAADAISKFLKSDSHNLKYMGIDGLGRLIKISPDIAEQHQLAVIDCLEDPDDTLKRKTFELLYKMTKSSNVEVIVDRMIDYMISINDNHYKTEIASRCVELAEQFAPSNQWFIQIMNKVFEHAGDLVNIKVAHNLMRLIAEGFGEDDDDADSKLRLSAVESYLQLISEPKLPSLFLQVISWVLGEYGTADGKYSASYISGKLCDVADAYSSDETVKGYAVSALMKIYAFEIASGRKVDVLPECQSLIEELLASHSTDLQQRAYELQALLALDARAVETILPLDASCEDIEVDKDLSFLNGYIQQAIESGAQPYISERERSGMFETTDYHPQDHHEVPTHALRFEAYELPKPSVPPQASNELVPVPEPSYYSESHQPISTSLVSERESSEIKLRLDGVKQKWGRPSYQSTTAASSTTPQAANGISTHSDAGVGSSSSKPRSSYEPKKPEIDPEKQRLAASLFGGSSSRTDKRSSSGGHKPAKGTANKTATVPKENQTPVQPPPDLLDFGEPTATTATAMDPFKELEGLMDSSSQDGGSSDVMGLYSDAAPVTTTTSVDSLLSELSDSSKGNSRTYQPQTSKGPNTKEALEKDALVRQMGVNPTSQNPTLFKDLLG
Consider B1, for which the binding entry was “no binding”.

(Values after publication PMC7997971.)
